Measured values: US20240209038A1, “TARGETING PIEZO1 TO TREAT INHERITED AND AGE-RELATED MACULAR DEGENERATIONS” (priority 2021, published 2024)
At least one compound was matched to its structure with a doubt left.

Tested on: RPE
Assay: Complement-mediated mitochondrial fragmentation in RPE (mito-RFP live imaging, A2E + 10% NHS)
Assay type: cell-based
Conditions: A2E-treated RPE exposed to 10% NHS; Simvastatin 5 μM 16 h, T0901317 1 μM 16 h, desipramine 10 μM 3 h
Procedure: FIGS. 7A-7B. 7A, 3D reconstruction from live imaging of mitochondrial volumes in mock transfected RPE transduced with mito-RFP, treated with A2E and exposed to 10% NHS to induce complement attack. RPE were treated with Simvastatin (5 μM, 16 h), T0901317 (1 μM, 16 h) or desipramine (10 μM, 3 h) prior to imaging. […] 7B, Quantification of fragmented mitochondria per cell from images in A. Mean±SEM, ***, p<0.0001, t-test. C, H3K9me3 (red) immunostaining in retinal cryosections from Abca4−/− mice treated with vehicle or […] desipramine i.p.

**Q.** How did the “complement-mediated mitochondrial fragmentation in RPE” value turn out when `CCC(C)(C)C(=O)O[C@H]1C[C@@H](C)C=C2C=C[C@H](C)[C@H](CC[C@@H]3C[C@@H](O)CC(=O)O3)[C@H]21` [simvastatin] was run?
**A.** Its value is “protect”.
